From PubChem BioAssay AID328 (DTP/NCI, 2004)
The list is a part of this screen's results and no random one: it gathers tests that were run many times, whatever their T/C, doses with no T/C, and many T/C values between a quarter and a half above the control. Further doses and runs are listed elsewhere. T/C: endpoint of the treated group in % of that of the vehicle group. Some doses have a count of surviving animals in place of a T/C: the source holds a T/C of zero for them, seemingly a mark for toxic or unscored doses. Some survivor counts are full or nearly so, which does not show that the dose was tolerated: the source hardly ever lists a survival T/C far under the control, and the zero likely stands for such cases as well. Counts of survivors are from the toxicity check (mostly the fifth day) where no day follows; animals may have died later. Schedule codes are those of the source, taken here to give the interval after Q, in days (D) or hours (H), and the number of doses after X. Some entries hold several experiments; the values are given in rising order. Brackets with × count equal records among those shown. Where survival is the endpoint, the PubChem record calls one and a half times the control and up active, and a quarter to a half above the control has no call in these data; cut-offs in other NCI protocols can differ. Some T/C values carry the count of animals alive at the toxicity check (mostly the fifth day); without a count, all were alive then.

System: BDF1 mice, P388 leukemia ip, median survival T/C
Experiment: NCI In Vivo Anticancer Drug Screen. Data for tumor model P388 Leukemia (intraperitoneal) in B6D2F1 (BDF1) mice
Settings: T/C endpoint: median survival time, higher T/C = longer survival
Procedure, shortened: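 Transplantable tumour in mice; compound vs vehicle dosing; survival scored; ratio of treated to control reported.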

[1] = dose: 2.0 mg/kg/injection, schedule: Q01DX009 (ip), vehicle: saline + alcohol

Question: How did the T/C [1] turn out when `COC(=O)[C@@]12OC[C@]34[C@H]([C@@H](O)[C@@H]1O)[C@@]1(C)CC(=O)C(O)=C(C)[C@@H]1C[C@H]3OC(=O)[C@H](OC(=O)/C=C(\C)C(C)C)[C@@H]24` was run?
Answer: The T/C was 198 % of control.

Question: What about the survivor count [1] of the same compound?
Answer: Its survivor count is 6 of 10 (2×) and 8 of 10.

Question: And the survivor count (dose: 2.0 mg/kg/injection, schedule: Q01DX009 (ip), vehicle: saline with Tween-80)?
Answer: Its survivor count is 6 of 10.

Question: What about the survivor count (dose: 2.0 mg/kg/injection, schedule: Q01DX009 (ip), vehicle: saline) of the same compound?
Answer: Its survivor count is 3 of 6.

Question: What about the survivor count (dose: 2.0 mg/kg/injection, schedule: Q03HX008 (ip), vehicle: saline + alcohol) of the same compound?
Answer: The survivor count was 0 of 10.

Question: And the survivor count (dose: 2.0 mg/kg/injection, schedule: Q03HX008 (ip), vehicle: saline with Tween-80)?
Answer: Its survivor count is 0 of 10.

Question: And the survivor count (dose: 2.0 mg/kg/injection, schedule: Q03HX016 (ip), vehicle: saline + alcohol)?
Answer: The survivor count was 0 of 10.

Question: What about the survivor count (dose: 2.0 mg/kg/injection, schedule: Q03HX016 (ip), vehicle: saline with Tween-80) of the same compound?
Answer: Its survivor count is 0 of 10.

Question: What about the T/C (dose: 2.0 mg/kg/injection, schedule: Q04DX003 (ip), vehicle: saline + alcohol) of the same compound?
Answer: The T/C was 125 % of control.

Question: And the T/C (dose: 2.0 mg/kg/injection, schedule: Q04DX003 (ip), vehicle: saline with Tween-80)?
Answer: Its T/C is 126 % of control.

Question: What about the survivor count (dose: 2.25 mg/kg/injection, schedule: Q01DX009 (ip), vehicle: saline with Tween-80) of the same compound?
Answer: The survivor count was 6 of 10.

Question: What about the survivor count (dose: 3.0 mg/kg/injection, schedule: Q04DX003 (ip), vehicle: saline + alcohol) of the same compound?
Answer: The survivor count was 4 of 8 and 5 of 8.

Question: And the survivor count (dose: 3.2 mg/kg/injection, schedule: Q01DX005 (ip), vehicle: saline + alcohol)?
Answer: The survivor count was 7 of 10.

Question: And the survivor count (dose: 4.0 mg/kg/injection, schedule: Q01DX001 (ip), vehicle: saline + alcohol)?
Answer: The survivor count was 5 of 10.

Question: What about the survivor count (dose: 4.0 mg/kg/injection, schedule: Q01DX001 (ip), vehicle: saline with Tween-80) of the same compound?
Answer: Its survivor count is 1 of 10.

Question: And the survivor count (dose: 4.0 mg/kg/injection, schedule: Q01DX001 (sc), vehicle: saline + alcohol)?
Answer: The survivor count was 6 of 10.

Question: What about the survivor count (dose: 4.0 mg/kg/injection, schedule: Q01DX009 (ip), vehicle: saline + alcohol) of the same compound?
Answer: The survivor count was 1 of 10.

Question: And the survivor count (dose: 4.0 mg/kg/injection, schedule: Q01DX009 (ip), vehicle: saline with Tween-80)?
Answer: Its survivor count is 3 of 10.

Question: And the survivor count (dose: 4.0 mg/kg/injection, schedule: Q01DX009 (ip), vehicle: saline)?
Answer: The survivor count was 0 of 6.

Question: And the survivor count (dose: 4.0 mg/kg/injection, schedule: Q04DX003 (ip), vehicle: saline + alcohol)?
Answer: Its survivor count is 6 of 10.

Question: What about the survivor count (dose: 4.0 mg/kg/injection, schedule: Q04DX003 (ip), vehicle: saline with Tween-80) of the same compound?
Answer: Its survivor count is 0 of 10.

Question: What about the survivor count (dose: 4.0 mg/kg/injection, schedule: Q08DX002 (ip), vehicle: saline + alcohol) of the same compound?
Answer: Its survivor count is 10 of 10.

Question: And the survivor count (dose: 4.0 mg/kg/injection, schedule: Q08DX002 (ip), vehicle: saline with Tween-80)?
Answer: Its survivor count is 3 of 10.

Question: And the survivor count (dose: 5.0 mg/kg/injection, schedule: Q04DX003 (ip), vehicle: saline + alcohol)?
Answer: Its survivor count is 0 of 8.

Question: And the survivor count (dose: 8.0 mg/kg/injection, schedule: Q01DX001 (ip), vehicle: saline + alcohol)?
Answer: Its survivor count is 0 of 10.

Question: What about the survivor count (dose: 8.0 mg/kg/injection, schedule: Q01DX001 (ip), vehicle: saline with Tween-80) of the same compound?
Answer: The survivor count was 0 of 10.

Question: What about the survivor count (dose: 8.0 mg/kg/injection, schedule: Q01DX001 (sc), vehicle: saline + alcohol) of the same compound?
Answer: The survivor count was 0 of 10.

Question: And the survivor count (dose: 8.0 mg/kg/injection, schedule: Q01DX009 (oral), vehicle: saline + alcohol)?
Answer: The survivor count was 1 of 10 and 3 of 10.

Question: What about the survivor count (dose: 8.0 mg/kg/injection, schedule: Q08DX002 (ip), vehicle: saline + alcohol) of the same compound?
Answer: The survivor count was 0 of 10.

Question: What about the survivor count (dose: 8.0 mg/kg/injection, schedule: Q08DX002 (ip), vehicle: saline with Tween-80) of the same compound?
Answer: The survivor count was 0 of 10.

Question: And the survivor count (dose: 16.0 mg/kg/injection, schedule: Q01DX001 (ip), vehicle: saline + alcohol)?
Answer: The survivor count was 0 of 10.

Question: And the survivor count (dose: 16.0 mg/kg/injection, schedule: Q01DX001 (ip), vehicle: saline with Tween-80)?
Answer: The survivor count was 0 of 10.

Question: And the survivor count (dose: 16.0 mg/kg/injection, schedule: Q01DX001 (oral), vehicle: saline + alcohol)?
Answer: Its survivor count is 1 of 10 and 3 of 10.

Question: What about the survivor count (dose: 16.0 mg/kg/injection, schedule: Q01DX001 (sc), vehicle: saline + alcohol) of the same compound?
Answer: The survivor count was 0 of 10.

Question: And the survivor count (dose: 16.0 mg/kg/injection, schedule: Q08DX002 (ip), vehicle: saline + alcohol)?
Answer: Its survivor count is 0 of 10.

Question: And the survivor count (dose: 16.0 mg/kg/injection, schedule: Q08DX002 (ip), vehicle: saline with Tween-80)?
Answer: Its survivor count is 0 of 10.

Question: And the T/C (dose: 11.2 micrograms/kg/injection, schedule: Q01DX009 (ip), vehicle: saline + alcohol)?
Answer: The T/C was 135 % of control.

Question: And the T/C (dose: 22.5 micrograms/kg/injection, schedule: Q01DX009 (ip), vehicle: saline + alcohol)?
Answer: Its T/C is 140 % of control.

Question: What about the T/C (dose: 648.0 micrograms/kg/injection, schedule: Q01DX004 (ip), vehicle: saline + alcohol) of the same compound?
Answer: Its T/C is 140 % of control [6 of 8 alive].

Question: And the survivor count (dose: 1080.0 micrograms/kg/injection, schedule: Q01DX004 (ip), vehicle: saline + alcohol)?
Answer: Its survivor count is 2 of 8.

Question: And the survivor count (dose: 1800.0 micrograms/kg/injection, schedule: Q01DX004 (ip), vehicle: saline + alcohol)?
Answer: Its survivor count is 1 of 8.

Question: And the survivor count (dose: 2000.0 micrograms/kg/injection, schedule: Q01DX009 (ip), vehicle: saline + alcohol)?
Answer: Its survivor count is 3 of 8.
